Measured data: PubChem BioAssay AID686943 (Drosophila RNAi Screening Center, 2013)

Purpose: 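Search across the genome for regulators of signalling from receptor tyrosine kinase to ERK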 (primary screen)
Cells: Drosophila S2R+ haemocyte-like cells expressing YFP-tagged ERK (Rolled)
Knock-down reagent: long dsRNA against Drosophila genes
Treatment: insulin stimulation versus unstimulated cells; dose and duration not given
Measurement: 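Antibody staining for doubly phosphorylated ERK divided by ERK-YFP signal, as plate z-scores, in insulin-treated and untreated cells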
Scale: replicate 1, z-score of dpERK with insulin and replicate 2, z-score of dpERK with insulin: higher = more active ERK per ERK-YFP after insulin; replicate 1, z-score of dpERK under basal conditions: higher = more basal active ERK per ERK-YFP; replicate 1, z-score of ERK-YFP with insulin: higher = more YFP-tagged ERK signal
In all, the deposit lists about 23,000 reagents; this is an unselected part of those with a known target gene and a result. 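Extra replicates exist only for a retested subset of genes; insulin dose and duration not given; both raised and lowered dpERK matter.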 Reagents against one gene are numbered here. A plus sign joins genes that one reagent is predicted to hit. No sequences are given here. Not stated in the record: the amount of reagent, the time to read-out.

no.	Gene	reagent no.	replicate 1, z-score of dpERK with insulin	replicate 2, z-score of dpERK with insulin	replicate 1, z-score of dpERK under basal conditions	replicate 1, z-score of ERK-YFP with insulin
1	CG2116	1	0.25	-0.33	-0.79	0.22
2	Polr1F	1	-0.02	0.02	-0.17	-0.46
3	sau	1	2.89	1.05	0.04	-0.64
4	CG43737	1	-0.24	0.44	0.08	0.25
5	CG43737	2	-0.01	0.52	-0.04	-0.49
6	CG12541	1	1.33	0.68	0.4	-0.21
7	CG12541	2	0.17	0.04	0.3	-0.43
8	dpr12	1	1.44	2.38	-2.5	-2.23
9	dpr12	2	0.58	-1.37	-1.19	-0.47
10	dpr12	3	1.36	0.66	-1.19	-0.41
11	CG14691	1	-0.22	-0.17	0.69	0.06
12	ND-51	1	-0.19	-0.03	-0.66	0.57
13	l(2)05287	1	-1.18	-0.39	-1.85	0.35
14	l(2)05287	2	-0.79	-0.77	-1.37	0.1
15	CG42537	1	0.13	0.04	-0.16	0.61
16	NijA	1	-1.13	-0.9	1.07	0.82
17	KrT95D	1	-0.61	0.05	1.47	0.23
18	CG15753 (retired record)	1	0.03	1.1	0.48	-0.13
19	CG15753 (retired record)	2	0.03	0.22	-0.24	0.57
20	CG15753 (retired record)	3	0.17	0.84	0.39	-0.06
21	CG15753 (retired record)	4	0.02	0.27	0.06	-0.13
22	CG15753 (retired record)	5	-4.13	-2.59	-1.94	-1.97
23	CG33459	1	0.28	-0.06	0.21	0.2
24	Ugalt	1	-0.08	0.76	1.37	0.12
25	CG34273	1	-0.99	-0.38	2.1	-0.29
26	HIPP1	1	0.77	0.95	0.67	-1.64
27	CG43795 + SkpF	1	1.26	0.56	0.18	-0.72
28	CG18747	1	0.02	0.1	-0.25	0.2
29	CG15919	1	1.28	-0.11	0.01	-0.63
30	Tsp42Eb + CG30160	1	-0.44	1.06	2.5	0.05
31	Tsp42Eb + CG30160	2	0.4	0.97	-0.18	0.25
32	CG15579	1	-0.13	0.26	-0.65	0.31
33	Lhr	1	1.56	0.3	0.99	-0.48
34	CG17660	1	-0.25	0.17	-0.65	0.08
35	CG9286	1	0.42	0.08	-0.19	0.6
36	CG8939	1	0.47	1.11	-0.13	-0.45
37	CG10809	1	-0.48	-0.02	-1.26	0.25
38	CG10663	1	-0.7	-0.27	0.43	0.1
39	CG7872	1	0.32	0.08	-0.09	0.48
40	CG32079	1	0.45	0.47	-0.29	0.85
41	CG4627	1	0.31	0.34	0.71	0.01
42	MtnF	1	0.21	0.49	0.16	0.52
43	bisc	1	-0.07	-0.94	-0.55	0.84
44	ImpE3	1	1.41	3.01	0.12	-1.4
45	CG3149	1	0.51	0.64	-0.07	-0.16
46	Trissin	1	-0.23	-0.66	-0.33	0.28
47	RecQ5	1	0.29	0.99	0.89	0.31
48	Dh44-R1	1	-0.59	0.32	-0.88	1.04
49	Sce	1	-1.05	-0.58	-1.11	0.61
50	Smg6	1	-1.4	-0.03	-2.18	1.76
51	Polr1B	1	0.29	-0.23	-0.53	0.55
52	Sulf1	1	0.34	-0.09	1.52	0.19
53	Sulf1	2	-0.65	0.25	-0.76	1.29
54	CG11162	1	1.16	0.72	0.57	-0.15
55	CG11162	2	0.81	0.52	0.78	0.08
56	CG31926	1	0.6	-0.07	0.58	-0.63
57	CG12929	1	-1.2	0.49	-0.74	1.53
58	CG32075	1	-0.07	0.42	-0.19	0
59	CG3397	1	1.1	0.2	-0.33	0.52
60	Arr1	1	0.18	-0.09	1.68	0.58
61	CG14118	1	-0.24	0.43	-0.4	0.35
62	CG2887	1	-0.62	-0.39	-0.19	1.31
63	Gr32a	1	0.78	0.65	-1.9	-0.88
64	tara	1	0.38	0.2	-0.11	0.84
65	Ctl1	1	0.02	-0.48	1.38	-0.18
66	CG17075	1	0.82	0.31	-0.3	1.01
67	P58IPK	1	0.06	-0.45	1.18	-0.07
68	CG7556	1	4.95	4.22	0.2	-0.72
69	CG15024	1	0.5	0.02	-0.38	0.27
70	Zip48C	1	-0.22	0.02	0.37	0.24
71	Prx6a	1	0.34	-0.08	-0.25	0.3
72	CG14022	1	0.72	-0.23	0.73	-0.84
73	CG2113	1	-0.05	-0.05	0.31	0.2
